System: acidic compartment
Test: pH estimate of acidic compartments from 440 nm/560 nm emission ratio
Type: cell-based

In the case of N#Cc1ccc(-c2nn[n]([Re](=[C]=O)(=[C]=O)=[C]=O)n2)cc1.c1cnc2c(c1)ccc1cccnc12 [PhenCyano, Triscarbonyl phenanthroline (4-cyanophenyltetrazolato)Rhenium(I)], the “ratio of emission at 440 nm to 560 nm in an acidic compartment” value (confocal microscopy) is reported as 1.29 and the “pH of the acidic compartment read from the ratio plot” value (ratio applied to FIG. 14, assuming pH<6) is reported as roughly 3.70 pH.

— patent US20170328922A1, “METHODS AND PRODUCTS FOR LABELLING LIPIDS” (UNIVERSITY OF SOUTH AUSTRALIA, priority 2014, published 2017)
